In PMC3520985 one finds binding data, which are given here for one substance.

By UniProt entry, the sequences of proteins in these tests, tags left out.
UniProt Q14166: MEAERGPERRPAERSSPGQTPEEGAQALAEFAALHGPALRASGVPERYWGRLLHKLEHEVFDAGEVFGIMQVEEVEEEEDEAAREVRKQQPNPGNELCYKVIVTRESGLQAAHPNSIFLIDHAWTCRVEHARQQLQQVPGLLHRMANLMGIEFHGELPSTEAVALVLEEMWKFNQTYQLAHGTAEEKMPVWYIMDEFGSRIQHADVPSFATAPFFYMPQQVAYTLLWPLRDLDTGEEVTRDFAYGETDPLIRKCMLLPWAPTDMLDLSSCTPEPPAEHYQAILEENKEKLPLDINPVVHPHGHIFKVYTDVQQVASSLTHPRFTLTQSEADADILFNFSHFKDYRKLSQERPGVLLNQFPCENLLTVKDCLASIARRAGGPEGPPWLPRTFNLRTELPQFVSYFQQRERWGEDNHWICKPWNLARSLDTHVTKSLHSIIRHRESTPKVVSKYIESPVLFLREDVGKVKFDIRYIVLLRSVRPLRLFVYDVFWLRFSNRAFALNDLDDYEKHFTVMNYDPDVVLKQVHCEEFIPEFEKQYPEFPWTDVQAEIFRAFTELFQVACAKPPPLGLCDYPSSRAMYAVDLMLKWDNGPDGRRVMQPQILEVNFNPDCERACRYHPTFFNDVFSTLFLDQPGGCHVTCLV
UniProt P62629: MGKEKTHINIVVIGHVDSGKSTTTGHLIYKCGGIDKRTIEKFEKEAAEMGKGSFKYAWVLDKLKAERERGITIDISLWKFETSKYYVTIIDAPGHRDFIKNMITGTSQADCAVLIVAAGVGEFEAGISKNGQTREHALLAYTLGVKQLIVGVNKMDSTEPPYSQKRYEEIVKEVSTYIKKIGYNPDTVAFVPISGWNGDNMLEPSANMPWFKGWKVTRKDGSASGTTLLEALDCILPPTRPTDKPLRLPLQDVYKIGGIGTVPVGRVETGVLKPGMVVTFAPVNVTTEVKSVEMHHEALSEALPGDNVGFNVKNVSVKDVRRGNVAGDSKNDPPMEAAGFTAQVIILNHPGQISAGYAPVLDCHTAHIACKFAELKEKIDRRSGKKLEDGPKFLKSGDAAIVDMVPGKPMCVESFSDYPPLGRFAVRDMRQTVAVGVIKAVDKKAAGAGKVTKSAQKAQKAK

This assay concerns the target hTTLL12 expressed with Vaccinia virus Ankara strain (MVA) vectors (human) (UniProt Q14166). Briefly: affinity purification with mass spectrometry; tagged hTTLL12 expressed in BHK21 cells with MVA vaccinia vectors, purified by affinity chromatography; EEF1A1 in the preparation identified by mass spectrometry and WB.

These are yes or no findings as the source states them, for the method shown. In cells and extracts the contact can be indirect. These calls come from enrichment with a bait or labelling near it, and not all partners need be listed.

For the substance “EEF1A1 (endogenous in BHK21 cells) (from UniProt P62629 1-462)”, the binding entry is reported as “binds”.
